Laboratory results as given in US20240376639A1 (ELASMOGEN, published 2024).
No constants are given. Whether binding was seen depends on the method and setting. Some entries that bind do so weakly or less than the wild type.

Sequences of proteins named here, by UniProt entry; tags and fusion partners are left off. Residues count along the entry.
UniProt Q01973, residues 30-403: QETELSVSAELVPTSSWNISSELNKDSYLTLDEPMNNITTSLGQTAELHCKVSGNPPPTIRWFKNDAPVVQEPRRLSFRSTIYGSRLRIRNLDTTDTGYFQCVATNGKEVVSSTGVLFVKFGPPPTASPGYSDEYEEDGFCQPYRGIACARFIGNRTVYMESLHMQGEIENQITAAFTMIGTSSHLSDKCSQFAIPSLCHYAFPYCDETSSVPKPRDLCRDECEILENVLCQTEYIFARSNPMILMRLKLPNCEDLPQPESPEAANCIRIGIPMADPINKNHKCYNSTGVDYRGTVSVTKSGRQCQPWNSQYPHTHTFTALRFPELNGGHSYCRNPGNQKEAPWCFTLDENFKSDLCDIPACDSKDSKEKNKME

Molecular target: T1, human ROR1 (human, UniProt Q01973 30-403, limits assumed)
T1 construct: The general ELISA protocol coats hROR1-Fc; also called hROR1; huROR1
Assay: BLI against hROR1

binding: binds
B1: D3 V2 (VNAR)
VNAR: ASVNQSPSSLSASVGDRVTITCVLTDTSYGLYSTSWFRKNPGTTDWERMSIGGRYVESVNKRAKSFTLTISSLQPEDFATYYCKAQSGMAISTGSGHGYNWYDGAGTKVEIK
notes: Humanised VNAR (soloMER)
